Among the data in publication doi:10.1101/2021.09.18.460932 are binding values, retold here.

Sequences of proteins named here, by UniProt entry; tags and fusion partners are left off.
UniProt Q14240: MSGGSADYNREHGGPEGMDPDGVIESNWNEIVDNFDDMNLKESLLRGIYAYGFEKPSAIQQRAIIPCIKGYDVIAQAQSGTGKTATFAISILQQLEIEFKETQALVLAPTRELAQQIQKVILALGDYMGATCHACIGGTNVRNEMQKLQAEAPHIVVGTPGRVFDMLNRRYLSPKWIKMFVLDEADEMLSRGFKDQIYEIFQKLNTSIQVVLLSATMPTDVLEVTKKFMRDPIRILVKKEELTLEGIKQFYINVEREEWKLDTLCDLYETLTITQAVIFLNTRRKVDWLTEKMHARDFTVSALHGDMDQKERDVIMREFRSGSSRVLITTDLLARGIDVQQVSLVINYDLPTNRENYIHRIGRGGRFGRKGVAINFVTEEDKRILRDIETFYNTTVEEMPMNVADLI
UniProt P60842: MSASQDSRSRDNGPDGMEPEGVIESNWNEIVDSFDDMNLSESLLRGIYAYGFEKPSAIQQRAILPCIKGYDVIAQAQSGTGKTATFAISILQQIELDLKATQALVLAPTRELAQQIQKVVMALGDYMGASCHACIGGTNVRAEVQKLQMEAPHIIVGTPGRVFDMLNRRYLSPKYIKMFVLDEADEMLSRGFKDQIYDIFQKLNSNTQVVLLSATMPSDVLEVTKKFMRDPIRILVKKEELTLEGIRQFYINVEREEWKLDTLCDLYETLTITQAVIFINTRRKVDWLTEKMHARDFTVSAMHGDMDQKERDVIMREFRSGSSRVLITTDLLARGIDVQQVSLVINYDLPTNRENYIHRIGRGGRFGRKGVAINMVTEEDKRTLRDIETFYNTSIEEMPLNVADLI
UniProt Q04637: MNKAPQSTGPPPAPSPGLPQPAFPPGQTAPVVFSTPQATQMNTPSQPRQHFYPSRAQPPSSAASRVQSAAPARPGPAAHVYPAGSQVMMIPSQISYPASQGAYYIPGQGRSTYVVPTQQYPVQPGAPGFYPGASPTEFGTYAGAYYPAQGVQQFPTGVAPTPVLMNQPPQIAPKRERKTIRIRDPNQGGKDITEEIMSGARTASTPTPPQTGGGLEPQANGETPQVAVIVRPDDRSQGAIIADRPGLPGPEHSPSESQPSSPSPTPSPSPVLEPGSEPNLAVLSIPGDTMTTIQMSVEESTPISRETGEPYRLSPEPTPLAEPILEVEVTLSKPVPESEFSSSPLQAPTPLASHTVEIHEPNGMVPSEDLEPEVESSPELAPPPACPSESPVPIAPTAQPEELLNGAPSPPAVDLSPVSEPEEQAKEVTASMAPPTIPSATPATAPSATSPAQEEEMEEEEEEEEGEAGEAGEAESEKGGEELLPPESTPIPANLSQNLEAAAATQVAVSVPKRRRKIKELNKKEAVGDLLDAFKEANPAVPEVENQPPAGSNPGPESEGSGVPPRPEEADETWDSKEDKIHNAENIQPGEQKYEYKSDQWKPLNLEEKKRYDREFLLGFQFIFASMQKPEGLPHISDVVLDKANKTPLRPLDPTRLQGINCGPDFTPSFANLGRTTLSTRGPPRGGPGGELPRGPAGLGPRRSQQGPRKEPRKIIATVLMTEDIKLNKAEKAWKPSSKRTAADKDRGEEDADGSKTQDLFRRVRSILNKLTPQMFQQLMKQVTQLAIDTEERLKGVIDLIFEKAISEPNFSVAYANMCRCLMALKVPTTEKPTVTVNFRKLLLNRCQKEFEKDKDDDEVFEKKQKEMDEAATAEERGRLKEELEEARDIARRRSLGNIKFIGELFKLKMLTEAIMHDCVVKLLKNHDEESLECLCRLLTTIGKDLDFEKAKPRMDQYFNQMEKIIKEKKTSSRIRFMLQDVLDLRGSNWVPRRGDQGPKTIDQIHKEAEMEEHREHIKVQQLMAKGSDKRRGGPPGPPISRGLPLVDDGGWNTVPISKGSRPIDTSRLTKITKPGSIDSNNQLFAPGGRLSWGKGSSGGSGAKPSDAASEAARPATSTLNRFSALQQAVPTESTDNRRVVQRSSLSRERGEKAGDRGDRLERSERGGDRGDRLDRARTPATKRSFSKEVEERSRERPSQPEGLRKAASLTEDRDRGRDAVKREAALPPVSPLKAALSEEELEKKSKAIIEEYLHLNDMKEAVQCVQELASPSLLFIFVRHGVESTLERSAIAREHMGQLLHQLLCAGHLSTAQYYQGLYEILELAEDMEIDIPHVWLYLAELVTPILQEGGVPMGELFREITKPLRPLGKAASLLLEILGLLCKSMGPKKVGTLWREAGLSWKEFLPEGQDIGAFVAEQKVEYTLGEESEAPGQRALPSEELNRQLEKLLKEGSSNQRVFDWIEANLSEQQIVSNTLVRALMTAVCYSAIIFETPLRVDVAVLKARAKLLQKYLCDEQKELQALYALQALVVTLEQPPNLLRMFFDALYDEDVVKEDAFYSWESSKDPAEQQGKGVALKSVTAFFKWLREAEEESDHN
UniProt P78344: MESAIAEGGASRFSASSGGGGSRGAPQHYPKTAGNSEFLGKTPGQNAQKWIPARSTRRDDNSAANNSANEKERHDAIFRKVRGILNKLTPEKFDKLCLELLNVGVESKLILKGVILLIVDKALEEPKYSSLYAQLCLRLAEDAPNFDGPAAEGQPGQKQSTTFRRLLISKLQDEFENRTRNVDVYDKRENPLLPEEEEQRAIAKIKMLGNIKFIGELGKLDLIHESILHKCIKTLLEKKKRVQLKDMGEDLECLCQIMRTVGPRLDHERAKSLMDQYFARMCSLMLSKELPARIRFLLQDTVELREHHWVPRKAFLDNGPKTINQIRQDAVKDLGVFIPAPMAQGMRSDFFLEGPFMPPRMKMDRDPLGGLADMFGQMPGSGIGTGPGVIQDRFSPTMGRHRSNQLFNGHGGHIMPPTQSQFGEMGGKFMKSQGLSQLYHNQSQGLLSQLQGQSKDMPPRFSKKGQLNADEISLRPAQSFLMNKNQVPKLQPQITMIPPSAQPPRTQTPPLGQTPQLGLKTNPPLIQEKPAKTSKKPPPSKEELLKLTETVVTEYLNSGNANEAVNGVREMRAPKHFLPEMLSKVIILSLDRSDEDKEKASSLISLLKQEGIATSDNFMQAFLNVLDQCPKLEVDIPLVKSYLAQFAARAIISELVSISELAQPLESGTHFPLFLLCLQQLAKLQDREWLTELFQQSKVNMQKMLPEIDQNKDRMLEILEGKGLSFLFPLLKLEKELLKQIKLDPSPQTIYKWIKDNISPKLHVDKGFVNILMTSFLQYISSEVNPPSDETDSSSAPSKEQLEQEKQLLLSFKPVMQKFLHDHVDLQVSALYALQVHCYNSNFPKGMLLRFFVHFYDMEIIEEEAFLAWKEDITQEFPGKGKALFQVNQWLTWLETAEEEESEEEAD

No constants are given. Whether binding was seen depends on the method and setting. Binding seen in cells or lysates may run through a third protein. A yes stands for co-enrichment or nearness to the bait. Other partners may have been found.

Test [1] concerns the target SBP-tagged eIF4A2 (human) (UniProt Q14240). Kind of test: affinity purification with mass spectrometry.
For test [2], the target named is SBP-tagged eIF4A1 (human) (UniProt P60842). Kind of test: affinity purification with mass spectrometry.

On to “eIF4G1, endogenous (from UniProt Q04637 1-1599)”, for which the binding result in test [1] was “binds”. As for “eIF4G2, endogenous (from UniProt P78344 1-907)”, the binding entry in test [1] and in test [2] was “binds” each time.
